In publication PMC10413933 one finds binding data, which are given here for one substance.

Chains of the proteins cited; added tags and fusions are not shown. Lines headed by an entry give the natural chain unless they say otherwise; changes in a name come on top.
UniProt Q9DAK3: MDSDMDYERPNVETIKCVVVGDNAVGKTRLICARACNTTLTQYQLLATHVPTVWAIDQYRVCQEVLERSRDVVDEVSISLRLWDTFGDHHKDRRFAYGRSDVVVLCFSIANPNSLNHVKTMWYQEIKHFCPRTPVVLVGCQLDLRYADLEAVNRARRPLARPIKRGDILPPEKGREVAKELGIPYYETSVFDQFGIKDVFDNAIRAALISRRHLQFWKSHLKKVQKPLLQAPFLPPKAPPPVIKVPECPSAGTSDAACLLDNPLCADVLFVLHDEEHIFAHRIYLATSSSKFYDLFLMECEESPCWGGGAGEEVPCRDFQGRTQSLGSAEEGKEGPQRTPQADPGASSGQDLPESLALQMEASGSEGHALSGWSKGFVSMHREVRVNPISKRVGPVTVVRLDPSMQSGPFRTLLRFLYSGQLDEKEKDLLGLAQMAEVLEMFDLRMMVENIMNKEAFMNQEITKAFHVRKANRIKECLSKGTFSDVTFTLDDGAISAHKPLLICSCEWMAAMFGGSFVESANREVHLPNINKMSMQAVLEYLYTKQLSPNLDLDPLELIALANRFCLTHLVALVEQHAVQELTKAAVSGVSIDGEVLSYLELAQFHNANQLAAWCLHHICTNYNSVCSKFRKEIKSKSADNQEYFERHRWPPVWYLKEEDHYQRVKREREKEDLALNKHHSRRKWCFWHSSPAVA
UniProt P09429: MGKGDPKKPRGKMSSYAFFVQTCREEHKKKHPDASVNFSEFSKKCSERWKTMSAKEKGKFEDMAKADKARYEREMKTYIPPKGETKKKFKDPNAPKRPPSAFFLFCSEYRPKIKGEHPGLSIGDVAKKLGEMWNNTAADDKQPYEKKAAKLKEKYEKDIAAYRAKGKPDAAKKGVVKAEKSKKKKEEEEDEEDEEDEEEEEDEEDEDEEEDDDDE

These are yes or no findings as the source states them, for the method shown. In cells and extracts the contact can be indirect. These calls come from enrichment with a bait or labelling near it, and not all partners need be listed.

The target in this test is B1B2–APEX2 (APEX2-tagged B1B2, lacking the C terminal region) (UniProt Q9DAK3). Briefly: proximity labelling; APEX2 fusion constructs in HEK293 cells, MG132, biotin-phenol and 1 mM H2O2 for 1 min; biotinylated proteins enriched on streptavidin beads and identified by mass spectrometry; B1B2C–APEX2 compared with B1B2–APEX2.

Consider “High Mobility Group Box 1 (HMGB1) (from UniProt P09429 1-215)”, for which the binding result is reported as “binds”.
